# Measurements from PubChem BioAssay AID504648 (National Center for Advancing Translational Sciences (NCATS), 2011).
# Among all 390,000 compounds or so, about 610 (0.16%) were called active. Inconclusive means that the source gave no clear call. Such entries were picked first, then a sample of the others. Calls follow the shape of the dose curve; as a rule, active = well fitted inhibition curve with a large enough effect; inconclusive = small, poorly fitted or top-dose-only effect, or effect the other way, or another doubt; inactive = no such curve, though single readings can be large or run the other way. Potencies beside an inconclusive call are fits to weak or partial responses and may not hold up.
# Assay: Nrf2 qHTS screen for inhibitors: counterscreen for cytotoxicity
# Settings: A549 ARE-Fluc cells, CellTiter-Fluor viability, 18-24 h; activity change, negative = cytotoxicity: at 46 µM (top of the series)
# From the text: NIH Molecular Libraries Probe Production Network [MLPCN]
# NIH Chemical Genomics Center [NCGC]
# Assay Provider: Shyam Biswal, Johns Hopkins University
# Nrf2 is a transcription factor that maintains cellular redox homoestasis and protects cells from xenobiotics. Nrf2 binds to the antioxidant response element (ARE) to induce gene expression of a broad spectrum of genes that encode for antioxidants. […] Finding a small molecule that act as an inhibitor of Nrf2 function would represent a novel therapeutic target that could lead to improvement in survival of patients undergoing chemo- and/or radio- therapy.
# So here we implemented a counterscreen to weed out the cytotoxic compounds.
# 1. Shibata, T., et al., Genetic Alteration of Keap1 Confers Constitutive Nrf2 Activation and Resistance to Chemotherapy in Gallbladder Cancer. Gastroenterology, 2008.
# 2. Sjoblom, T., et al., The consensus coding sequences of human breast and colorectal cancers. Science, 2006. 314(5797): p. 268-74.
# NCGC Assay Protocol Summary:
# A concentration-response assay was performed with A549 ARE_Fluc cells which are suspended in 5% FBS OPTI-MEM. Five uL were dispensed into 1536-well white TC-treated plate using the Kalypsys dispenser to achieve a density of 5000 cells/well in all columns except column 1. The plate is incubated at 37deg C at 5% CO2 for 2 hours before 23 nL of compounds are added with the Kalypsys pin tool equipped with a 1,536-pin array containing 10-nL slotted pins (FP1S10, 0.457-mm diameter, 50.8 mm long; V&P Scientific). The control compounds Budesonide and Staurosporine are both added at a concentration of 2mM and Budesonide is also added as a 1:10 titration, starting at 200uM, to achieve dose-response. After an 18-24 hour incubation at 37deg C at 5% CO2, 5ul of medium is added to column 1. Afterwards 1ul of 5x of CellTiter-Fluor (Promega) is added to every well. The plate is then incubated at 37deg C at 5% CO2 for 30 minutes before they are read on the ViewLux (Perkin Elmer) for a fluorescent read Ex=405(10)/Em=525(10) for a 3 second exposure, 2x binning, and high gain. Then 3 uL of 3x BugLite is dispensed into all wells and the plate is incubated at ambient room temperature for 15 minutes. Afterwards another ViewLux read is performed using the clear filter to get a luminescent read with the settings of 40 second exposure, 2x binning, and high gain. Cytotoxicity is assessed through the first fluorescent read and then biochemical activity against Nrf2 is measured in the luminescent read.
# % is scaled to controls: 0 for no effect and ±100 for the full control effect; potency is read from the fitted curve at half-maximal effect.
Compound,Potency,"activity change, negative = cytotoxicity"
O=C(CN1C(=O)COc2ccc(S(=O)(=O)N3CCCCCC3)cc21)Nc1cccc(Cl)c1,active: 18.4 µM,–
COc1cc(/C=C2\OC(=O)c3c(OC)cccc32)ccc1O,"inconclusive: 20.6 µM [activator, single point]",–
Cc1cccc(NC2=Nc3ccccc3N3C2=Nc2c(c(C)nn2-c2ccccc2)C3c2ccc(O)c(O)c2)c1 (stereo unspecified),"inconclusive: 29.1 µM [falling, single point]",–
Cc1nc(Nc2ccncc2)c2oc3ccccc3c2n1,–,inactive: -7.37%
O=C(C1CCN(S(=O)(=O)c2ccc3c(c2)OCCO3)CC1)N1CCc2ccccc21,–,inactive: -0.0566%
COCCNC(=S)N/N=C(\C)c1cc2ccccc2o1,"inconclusive: 13 µM [activator, partial curve, poor fit]",–
CN(NS(=O)(=O)c1ccc(Br)cc1)c1nc(C(F)(F)F)nc2ccccc12,"inconclusive: 32.6 µM [falling, single point]",–
CC(=O)Nc1ccc(S(=O)(=O)N(CCO)Cc2ccccc2)cc1,"inconclusive: 4.11 µM [activator, single point]",–
O=[N+]([O-])c1ccc(N2CCN(CCO)CC2)cc1NCc1ccco1,"inconclusive: 25.9 µM [falling, partial curve, poor fit]",–
CCc1ccc(NS(=O)(=O)c2ccc3oc(=O)c4ncn(CC)c4c3c2)cc1,–,inactive: 2.19%
Cc1cccn2c(=O)c3cc(C(=O)NCc4cccnc4)c(=N)n(C(C)C)c3nc12,"inconclusive: 13 µM [activator, partial curve]",–
CC(=O)c1c(C)[nH]c(C(=O)OCC(=O)NCCCc2ccccc2)c1C,–,inactive: -1.08%
COC(=O)c1c(NC(=O)c2ccco2)sc2c1CC(C)(C)NC2(C)C,"inconclusive: 32.6 µM [falling, partial curve, poor fit]",–
Cc1cc(Cl)ccc1NC(=O)Cn1nc(C)c2c(C)n(-c3ccccc3)nc2c1=O,–,inactive: 4.04%
COCCCNC(=O)C[C@H]1C[C@H](C(=O)N(C(C)C)C(C)C)[C@@]2(C)c3[nH]c4ccc(Cl)cc4c3CCN2C1=O,–,inactive: -9.56%
O=C(O)c1ccccc1C(=O)c1ccc2c(c1)N(Cc1ccc(Cl)c(Cl)c1)C(=O)CO2,"inconclusive: 20.6 µM [falling, single point]",–
CC/C(=N\Nc1ccc([N+](=O)[O-])cc1)c1ccccc1,"inconclusive: 29.1 µM [falling, single point]",–
O=C(CC1C(=O)NCCN1C/C=C/c1ccccc1)NCCc1ccncc1 (stereo unspecified),–,inactive: -6.22%
Cc1ccccc1OC(C)C(=O)NCCNC(=O)C(C)Oc1ccccc1C (stereo unspecified),–,inactive: 0.689%
O=C(O)c1cccc2cccc(-c3c4ccc(=O)c(O)c-4oc4c(O)c(O)ccc34)c12,"inconclusive: 20.6 µM [falling, single point]",–
CCC(C)[C@H](NC(=O)C1CCC(CNC(=O)[C@@H]2CCCN2C(=O)OC(C)(C)C)CC1)C(=O)O (stereo partly specified),–,inactive: 8.22%
c1cncc(-c2cccnc2)c1,"inconclusive: 32.6 µM [activator, partial curve, poor fit]",–

Compound,Potency,"activity change, negative = cytotoxicity"
Cc1ccc(-c2nc(CS(=O)(=O)CC(=O)N3CCc4ccccc4C3)c(C)o2)cc1,"inconclusive: 29.1 µM [falling, single point]",–
CCOc1ccc(N2C(=O)Nc3ccc(Br)cc3C2(O)C(=O)NCCCN(C)C)cc1 (stereo unspecified),–,inactive: -3.71%
C/C=C(/C)C(=O)OC1c2c(ccc3ccc(=O)oc23)OC(C)(C)C1OC(=O)/C(C)=C\C (stereo unspecified),"inconclusive: 29.1 µM [falling, single point]",–
COc1ccc(/C=C2/SC(=S)N(CCC(=O)O)C2=O)cc1,"inconclusive: 13 µM [falling, partial curve, poor fit]",–
Cc1sc2ncnc(NC3CCN(Cc4ccccc4)CC3)c2c1C,"inconclusive: 11.6 µM [falling, partial curve]",–
Cc1nn(-c2ccccc2)c(N2CCCC2)c1/C=N/Nc1ccc(S(N)(=O)=O)cc1[N+](=O)[O-],"inconclusive: 23.1 µM [falling, partial curve, poor fit]",–
Cc1ccc2onc(CC(=O)N3CCN(c4ccc(F)cc4)CC3)c2c1,"inconclusive: 5.8 µM [falling, partial curve, poor fit]",–
CC(=O)Nc1ccc(-c2csc(NC(=O)CCCc3cccs3)n2)cc1,–,inactive: 2.2%
COC(=O)c1c(NC(=O)c2cc3ccccc3c(=O)o2)sc2c1CCCC2,–,inactive: -4.2%
COc1ccc(OCc2nnc(SC3CCOC3=O)n2-c2ccccc2)cc1 (stereo unspecified),"inconclusive: 23.1 µM [activator, partial curve, poor fit]",–
Oc1c(N=NC(=S)Nc2ccccc2F)c2ccccc2n1Cc1cccc(Cl)c1,"inconclusive: 16.4 µM [falling, single point]",–
O=C(O)c1ccc(-c2noc(-c3ccc(F)cc3)n2)cc1,"inconclusive: 29.1 µM [falling, single point]",–
CN(CCCNC(=O)c1cc2c(Cl)nc3ccccc3c2s1)Cc1ccccc1,"inconclusive: 32.6 µM [falling, partial curve, poor fit]",–
CCOC(=O)c1c(C)nc2sc3c(=O)n(-c4ccc(C(C)=O)cc4)nnc3c2c1-c1ccc(Cl)cc1,"inconclusive: 25.9 µM [falling, single point]",–
O=C1CCCN1CCCNC(=S)Nc1cccc2ccccc12,"inconclusive: 4.11 µM [activator, partial curve, poor fit]",–
COc1ccc(CCNC(=O)c2c([S-])n(-c3ccc(C)cc3)c3cccc[n+]23)cc1,"inconclusive: 14.6 µM [falling, partial curve]",–
CCOc1ccc(NC(=O)COc2ccc(OC)cc2)cc1,"inconclusive: 29.1 µM [falling, single point]",–
COc1cc(C2c3cc4c(cc3OC(C)(N3CCCC3)C2C)OCO4)cc(OC)c1OC (stereo unspecified),"inconclusive: 9.2 µM [falling, partial curve, poor fit]",–
Cc1cc(N/N=C/c2ccccc2[N+](=O)[O-])nc(-n2nc(C)cc2C)n1,"inconclusive: 20.6 µM [falling, partial curve, poor fit]",–
O=C1C2CCCN2C(c2ccc(F)cc2)N1c1cccc(Cl)c1 (stereo unspecified),"inconclusive: 29.1 µM [activator, single point]",–
O=C1NC(=S)SC1=Cc1ccc2c(c1)OCO2,"inconclusive: 25.9 µM [falling, single point]",–
COc1ccc(CCNC(=O)NC2CCCCC2)cc1OC,"inconclusive: 1.03 µM [falling, full curve]",–

Compound,Potency,"activity change, negative = cytotoxicity"
Cc1ccc(C2CCN(C(=O)c3cnn(-c4cccc(Cl)c4)c3C3CCN(C(=O)OC(C)(C)C)CC3)C2)cc1 (stereo unspecified),"inconclusive: 29.1 µM [falling, single point]",–
O=C(Nc1ccccc1F)Nc1ccccc1N1CCCCC1,"inconclusive: 23.1 µM [falling, single point]",–
COc1ccccc1CNC(=O)CCc1c(C)nn(-c2ccc(N3CCOCC3)nn2)c1C,–,inactive: 2.83%
C/C(=C\C=C(C#N)C#N)c1cc(C#N)c(N)o1,"inconclusive: 6.51 µM [falling, partial curve]",–
CCN(CC)S(=O)(=O)c1ccc(NC(=O)NCc2noc3ccc(C)cc23)cc1,"inconclusive: 18.4 µM [falling, partial curve, poor fit]",–
O=c1cc(-c2ccccc2)n2c(SCc3ccc(Cl)cc3)nnc2[nH]1,–,inactive: 13.3%
Cc1c(Cl)cccc1NC(=O)CSc1nc2ncc(Cl)cc2[nH]1,–,inactive: -4.11%
COc1ccc(NC(=O)Nc2nc3ccccc3s2)cc1,"inconclusive: 0.206 µM [falling, partial curve, poor fit]",–
CCCC(=O)NC1CCc2cc(OC)c(OC)c(OC)c2-c2ccc(OC)c(=O)cc21 (stereo unspecified),"inconclusive: 10.3 µM [falling, partial curve]",–
CC(=O)Nc1cccc(/C(C)=N/NC(=O)c2cccs2)c1,–,inactive: -0.368%
COc1ccc(NC(=O)c2nc[nH]c2C(=O)Nc2ccccc2C)cc1,"inconclusive: 11.6 µM [falling, partial curve, poor fit]",–
CCCCOc1cc(NCc2ccccc2)c2ncn(C(C)C)c2c1,"inconclusive: 23.1 µM [falling, single point]",–
FC(F)(F)c1cccc(-c2nc3nc(Cl)c(Cl)nc3[nH]2)c1,"inconclusive: 20.6 µM [falling, single point]",–
CC(C)(C)OC(=O)NCCc1nnc(SCC(=O)Nc2cccc(Cl)c2)o1,"inconclusive: 18.4 µM [activator, partial curve, poor fit]",–
Cc1ccc2nc(N3CCC(C(=O)N4CCN(c5cccc(C)c5C)CC4)CC3)[nH]c2c1,"inconclusive: 29.1 µM [falling, partial curve, poor fit]",–
CCc1c(C)sc(NC(=O)c2ccoc2C)c1C(N)=O,–,inactive: 4.08%
COc1ccccc1NS(=O)(=O)c1cccc(NC(=O)Nc2cccc(Cl)c2)c1,"inconclusive: 29.1 µM [falling, partial curve, poor fit]",–
O=C(CCNS(=O)(=O)c1ccccc1)NCC1CCCCC1,–,inactive: 0.966%
S=C(NCC1CCCO1)N1CCc2ccccc2C1 (stereo unspecified),–,inactive: 1.74%
O=C(OC12CC3CC(CC(C3)C1)C2)c1ccc(NCc2cc(O)ccc2O)cc1,"inconclusive: 20.6 µM [falling, single point]",–
C[C@H]1CN([C@@H](C)CO)C(=O)c2cccc(NC(=O)Nc3ccc(C(F)(F)F)cc3)c2O[C@@H]1CN(C)Cc1ccc(Cl)c(Cl)c1,"inconclusive: 23.1 µM [falling, single point]",–
COc1ccc(NC(=S)N=Nc2c(O)[nH]c3ccccc23)cc1,"inconclusive: 20.6 µM [falling, single point]",–

# A few values from above.
# Cc1ccc2nc(N3CCC(C(=O)N4CCN(c5cccc(C)c5C)CC4)CC3)[nH]c2c1 | Potency: inconclusive: 29.1 µM [falling, partial curve, poor fit]
# COc1ccc(NC(=S)N=Nc2c(O)[nH]c3ccccc23)cc1 | Potency: inconclusive: 20.6 µM [falling, single point]
# Cc1ccc(C2CCN(C(=O)c3cnn(-c4cccc(Cl)c4)c3C3CCN(C(=O)OC(C)(C)C)CC3)C2)cc1 (stereo unspecified) | Potency: inconclusive: 29.1 µM [falling, single point]
# CCCCOc1cc(NCc2ccccc2)c2ncn(C(C)C)c2c1 | Potency: inconclusive: 23.1 µM [falling, single point]
# O=C(Nc1ccccc1F)Nc1ccccc1N1CCCCC1 | Potency: inconclusive: 23.1 µM [falling, single point]
